Laboratory results taken from patent publication US20160089401A1, “USES OF TREHALOSE IN CELL SUSPENSIONS” (Cook General Biotechnology LLC, priority 2014, published 2016).

Tested on: canine uterine regenerative cells (mesenchymal stem cell populations obtained from canine uterine tissue)
Experiment: Cell morphology 24 hours after plating into T25 flasks
Type: cell-based
Experimental: After time in the bag had expired, the cells were carefully removed from the bag with a syringe and 18 gauge needles. This volume was carefully placed in a 50 mL conical flask. It was mixed to ensure even distribution of cells, then mixed 1:1 with trypan blue and counted to determine viability. The volume was then centrifuged at 400 g for 5 minutes, supernatant aspirated, and resuspended in 2mL complete media. 1 mL of this cell suspension was then plated into a T25 flask. 24 hours later, the plates were observed and the condition of the cells noted.

OC[C@H]1O[C@H](O[C@H]2O[C@H](CO)[C@@H](O)[C@H](O)[C@H]2O)[C@H](O)[C@@H](O)[C@@H]1O [trehalose, (2R,3S,4S,5R,6R)-2-(hydroxymethyl)-6-[(2R,3R,4S,5S,6R)-3,4,5-trihydroxy-6-(hydroxymethyl)oxan-2-yl]oxyoxane-3,4,5-triol]
cell morphology (Donor1 cells, 24 hours after plating in T25 flasks, trehalose 3.3%, hydroxyethyl starch 25%): normal | cell morphology (summary, cells plated into T25 flasks): normal
